Data source: PubChem BioAssay AID1259405 (NCATS, 2018)

- Assay: 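Knock-downs that lift recombinant protein yield in hamster ovary cells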 (primary screen)
- Cells: Chinese hamster CHO-K1 ovary cells with stable secreted eGFP expression
- Reagents: single siRNA against mouse genes, 0.8 pmol siRNA per well (2 µl of 400 nM stock)
- Duration: 3 days
- Read-out: 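Percent of the per-plate non-targeting control median for intracellular GFP per well by laser scanning cytometry and for cell viability by ATP luminescence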
- Scale: GFP, % of control: higher = more GFP per well, higher productivity; viability (ATP), % of control: higher = more viable cells (more ATP)
- Rule for the call: 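Called active when intracellular GFP, relative to negative control, is at or above 120%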
This is an unselected part of about 50,000 reagents. In the full data, about 4,000 (8%) got an active call. 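Mouse siRNA library applied to hamster cells; one well for each siRNA.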 Entries without a mark were called inactive. Reagents against one gene are numbered here.

gene	siRNA no.	GFP, % of control	viability (ATP), % of control
Rsl1	1	63	60.7
Rsl1	2	75.1	97.5
Rsl1	3	49.2	57.7
Syt17	1	62.2	59.2
Syt17	2	72.3	89.8
Syt17	3	73.5	87.3
Or56b1b	1	37.3	41
Or56b1b	2	67.9	91.9
Or56b1b	3	60.8	64.4
Psors1c2	1	98.5	43.6
Psors1c2	2	73.6	61.8
Psors1c2	3	136 (active)	92.5
Hck	1	82.2	69.4
Gm5069	1	105	87
Gm5069	2	117	93.9
Gm5069	3	80.4	59.5
Gnrhr	1	44.4	54.8
Gnrhr	2	82.3	93.6
Gnrhr	3	143 (active)	57
Or1f19	1	48.8	71.9
Or1f19	2	72.3	65.9
Or1f19	3	56.3	94
Nfs1	1	96	104
Nfs1	2	57.7	71.1
Nfs1	3	49.1	55.6
Cyp4f13	1	75.8	91.4
Cyp4f13	2	102	104
Cyp4f13	3	72.4	79.1
Or10p21	1	110	64.6
Or10p21	2	85	81
Or10p21	3	38.7	45.3

Continued (6 carried over from the part before).
gene	siRNA no.	GFP, % of control	viability (ATP), % of control
Cyp4f13	1	75.8	91.4
Cyp4f13	2	102	104
Cyp4f13	3	72.4	79.1
Or10p21	1	110	64.6
Or10p21	2	85	81
Or10p21	3	38.7	45.3
St6galnac3	1	47.7	27.6
St6galnac3	2	82.7	155
St6galnac3	3	101	122
Scn3b	1	111	106
Scn3b	2	133 (active)	76.6
Scn3b	3	75	105
Pggt1b	1	109	111
Pggt1b	2	57.2	98.3
Pggt1b	3	85.3	109
Ror1	1	45.6	46.4
Ankrd28	1	52.2	37.8
Ankrd28	2	66.7	78.1
Ankrd28	3	77.7	72.8
Hacd4	1	76.7	71.9
Hacd4	2	74	86
Hacd4	3	132 (active)	128
Pam16	1	53.6	59.5
Pam16	2	61.3	43.7
Pam16	3	61.1	59.7
Glra4	1	71.3	80.5
Glra4	2	45.5	65.4
Glra4	3	46.3	61.7
Acot13	1	79.1	99.4
Acot13	2	72	80
Acot13	3	56.5	59.8
Or3a1c	1	118	75.7
Or3a1c	2	81.6	75.8
Or3a1c	3	135 (active)	72.5
Or2w3b	1	92.4	56.8
Or2w3b	2	35.3	35.8
Or2w3b	3	49.4	77.8
Brd2	1	83.8	114
Brd2	2	68.4	60.5
Brd2	3	61.6	45.6
Or2t49	1	34.8	52
Or2t49	2	79.2	79.6
Or2t49	3	53.4	74.2
Ncor1	1	69.1	75
Ncor1	2	88.8	74.6
Wdsub1	1	170 (active)	88.9
Wdsub1	2	4.49	36.2
Wdsub1	3	83.2	85.1
Ccdc178	1	124 (active)	73.3
Ccdc178	2	32.5	31.9
Ccdc178	3	99.4	116
Lrp1b	1	58.5	46
Lrp1b	2	72.7	60.3
Lrp1b	3	77.3	51.8
Angel1	1	129 (active)	104
Angel1	2	72.1	92.1
Arvcf	1	62.2	93.4
Arvcf	2	71.4	75.8
Arvcf	3	76.8	45.6
